Data set [1] deals with T1, CcpA-Met19 (wild type, Genr0) (Lactococcus lactis MG1363 (strain Genr0)) (UniProt A2RJC5).
T1 sequence (looked up, limits assumed): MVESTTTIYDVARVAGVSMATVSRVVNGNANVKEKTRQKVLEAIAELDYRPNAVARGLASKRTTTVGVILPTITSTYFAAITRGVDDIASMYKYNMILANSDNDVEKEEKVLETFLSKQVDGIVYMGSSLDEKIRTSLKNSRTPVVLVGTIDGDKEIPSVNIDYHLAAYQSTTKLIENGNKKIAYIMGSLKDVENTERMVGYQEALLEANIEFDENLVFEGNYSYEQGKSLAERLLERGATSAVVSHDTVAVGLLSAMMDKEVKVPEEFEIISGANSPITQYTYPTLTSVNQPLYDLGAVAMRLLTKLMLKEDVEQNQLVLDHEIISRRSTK
In words: EMSA. To be noted: 100-800 nM CcpA, 4 nM DNA, slightly lower affinity than Ile19; EMSA: 20 mM Tris-HCl pH 8, 100 mM KCl, 10 mM MgCl2, 1 mM EDTA, 1 mM DTT, 5% glycerol, 40 ug/ml BSA, 4 nM Cy3-DNA, 30 C 20 min; 7.5% native PAGE in TBE; recombinant protein; protein details: N-terminal 6xHis (pQE30); label: 5'-Cy3 on (+) strand.

Data set [2] has as its target T2, CcpA-Ile19 (evolved, 445C1) M19I (Lactococcus lactis MG1363 (evolved strain 445C1)) (UniProt A2RJC5).
T2 sequence (looked up, limits assumed): T1 sequence (looked up, limits assumed) with M19I
In words: EMSA. To be noted: 100-800 nM CcpA, 4 nM DNA, EMSA: 20 mM Tris-HCl pH 8, 100 mM KCl, 10 mM MgCl2, 1 mM EDTA, 1 mM DTT, 5% glycerol, 40 ug/ml BSA, 4 nM Cy3-DNA, 30 C 20 min, 7.5% native PAGE in TBE, recombinant protein, protein details: N-terminal 6xHis (pQE30), label: 5'-Cy3 on (+) strand. Background: Mobility shift assays separate free from complexed probe on a gel.

Results on three sequences are retold here after article PMC6327505, “Adaption to glucose limitation is modulated by the pleotropic regulator CcpA, independent of selection pressure strength”.

Residue numbers refer to the chain shown, from its start. For at least one entry, the source does not settle the construct or the ends of the probe. For part of these data: The comparison behind a weaker result is the experiment's own reference, which may not be listed here. At least one verdict was read from the data and is not stated in words by the source. Where a protein sequence is shown, tags need not be part of it.

With “ACCACAATGTAAAAGCTTACAATTGCT (double strand) [mtlD cre]”, the binding result in data set [1] was “binds more weakly”.
“TTCTTACTGTTAGCGCTTTCAGTACG (double strand) [syn cre (perfect cre site)]”: the binding result in data set [2] (affinity increased vs Met19) was “binds”.
As for “AAAAAATAGATAACGCTTGCATTATGAA (double strand) [ptcB cre (F1/R1)]”, the binding result in data set [2] (affinity increased vs Met19, most pronounced) is recorded as “binds”.
